Data source: PubChem BioAssay AID602196 (INSERM, 2012)

- Test: 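Knock-downs that protect lung cancer cells from cisplatin or sensitise them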
- Cell system: human A549 lung cancer cells
- Reagents: siRNA pair against human genes
- Timing: 48 h transfection before cisplatin; time from cisplatin to read-out not stated
- Challenge: cisplatin at a dose killing half of control-siRNA cells; exact dose and duration not given
- Measured: 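Shift in cisplatin death relative to control siRNA, from -50 (all cells die) to +50 (no cells die); siRNAs harmful on their own scored 0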
- Reading the numbers: two-siRNA summed score (-2 to +2): higher = both siRNAs protect from cisplatin killing; -2 means both sensitise; mean protection from cisplatin (shift in death): higher = protection from cisplatin killing
- Active means: 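siRNAs harmful alone (LDH or WST-1) get 0; others get +1 for less and -1 for more cisplatin killing; genes are active when the two siRNAs give the same sign, summing to ±2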
- Calls: active = both siRNAs shift cisplatin killing the same way; inactive = no consistent shift, or siRNA harmful alone
Shown is an unselected part of about 23,000 deposited reagents. 455 of them (2%) were called active. 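Active includes both protection and sensitisation; some change values fall well beyond the stated -50 to +50 range.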 Entries without a mark were called inactive. Further read-outs or replicates are left out here. No sequences are given here. The record does not give: the amount of reagent.

APOD (GeneID 347) scored two-siRNA summed score (-2 to +2) = 0; mean protection from cisplatin (shift in death) (%) = -0.6.
For PIP5KL1 (GeneID 138429), the entry reads two-siRNA summed score (-2 to +2) = 1; mean protection from cisplatin (shift in death) (%) = 24.1.
Knock-down of SEPTIN7P11 (GeneID 441601) resulted in: two-siRNA summed score (-2 to +2) = 0; mean protection from cisplatin (shift in death) (%) = 8.3.
ZNF652 (GeneID 22834) gave two-siRNA summed score (-2 to +2) = 0; mean protection from cisplatin (shift in death) (%) = 7.1.
For CALCRL (GeneID 10203), the entry reads two-siRNA summed score (-2 to +2) = 0; mean protection from cisplatin (shift in death) (%) = 7.4.
Knock-down of NDUFV1-DT (GeneID 100505621) resulted in: two-siRNA summed score (-2 to +2) = 0; mean protection from cisplatin (shift in death) (%) = 6.9.
USP11 (GeneID 8237) showed two-siRNA summed score (-2 to +2) = 0; mean protection from cisplatin (shift in death) (%) = -12.4.
Silencing of CYRIB (GeneID 51571) gave: two-siRNA summed score (-2 to +2) = 0; mean protection from cisplatin (shift in death) (%) = -3.5.
After knock-down of VIPR2 (GeneID 7434), the record shows two-siRNA summed score (-2 to +2) = 1; mean protection from cisplatin (shift in death) (%) = -5.6.
Against DUSP19 (GeneID 142679), the entry reads two-siRNA summed score (-2 to +2) = 0; mean protection from cisplatin (shift in death) (%) = -11.9.
Silencing of FRMD4A (GeneID 55691) resulted in: two-siRNA summed score (-2 to +2) = 0; mean protection from cisplatin (shift in death) (%) = 11.2.
With knock-down of ATP6V1G1 (GeneID 9550), the screen gave two-siRNA summed score (-2 to +2) = 0; mean protection from cisplatin (shift in death) (%) = 6.3.
DNAJC19 (GeneID 131118) scored two-siRNA summed score (-2 to +2) = 0; mean protection from cisplatin (shift in death) (%) = 7.7.
With knock-down of FABP3 (GeneID 2170) the results were two-siRNA summed score (-2 to +2) = 0; mean protection from cisplatin (shift in death) (%) = -0.7.
For WNT10A (GeneID 80326), the entry reads two-siRNA summed score (-2 to +2) = 1; mean protection from cisplatin (shift in death) (%) = 8.8.
After knock-down of HAS3 (GeneID 3038), the record shows two-siRNA summed score (-2 to +2) = 1; mean protection from cisplatin (shift in death) (%) = 18.2.
PGAP1 (GeneID 80055) gave two-siRNA summed score (-2 to +2) = 1; mean protection from cisplatin (shift in death) (%) = 4.5.
LOC391356 showed two-siRNA summed score (-2 to +2) = 0; mean protection from cisplatin (shift in death) (%) = 25.8.
For LOC389102 the deposit lists two-siRNA summed score (-2 to +2) = -1; mean protection from cisplatin (shift in death) (%) = -7.7.
C1orf56 (GeneID 54964) gave two-siRNA summed score (-2 to +2) = 0; mean protection from cisplatin (shift in death) (%) = 11.8.
Knock-down of LOC442649 gave: two-siRNA summed score (-2 to +2) = 1; mean protection from cisplatin (shift in death) (%) = 18.1.
